# Reference: patent publication US20200390850A1, “PEPTIDES AND USES THEREOF” (LATERAL IP PTY LTD, priority 2018, published 2020)
# At least one peptide structure holds a part that was inferred or is arguable (an end, a ring closure or a residue). Positions of bridges follow the written chain, without caps; N, C: chain ends. Residues, ends and D or L forms follow the SMILES beside them.
# Test system: Chung rats
# Assay: Paw withdrawal threshold in nerve constriction model of neuropathic pain (Chung model)
# Format: in vivo, rat
# Experimental: Briefly, adult male Sprague-Dawley rats, 8-9 weeks old, weighing 220-250 g at the time of surgery, were purchased from Charles River UK Ltd.
# The animals were housed in groups of 4 in an air-conditioned room on a 12-hour light/dark cycle. Food and water were available ad libitum. They were allowed to acclimatise to the experimental environment for three days by leaving them on a raised metal mesh for at least 40 min. The baseline paw withdrawal threshold (PWT) was examined using a series of graduated von Frey hairs for 3 consecutive days before surgery and re-assessed on the 6th to 8th day after surgery and on the 12th to 14th day after surgery before drug dosing.
# Each rat was anaesthetized with 5% isoflurane mixed with oxygen (2 L per min) followed by an intramuscular (i.m.) injection of ketamine 90 mg/kg plus xylazine 10 mg/kg. The back was shaved and sterilized with povidone-iodine. The animal was placed in a prone position and a para-medial incision was made on the skin covering the L4-6 level. The L5 spinal nerve was carefully isolated and tightly ligated with 6/0 silk suture. The wound was then closed in layers after a complete hemostasis. A single dose of antibiotics (Amoxipen, 15 mg/rat, i.p.) was routinely given for prevention of infection after surgery. The animals were placed in a temperature-controlled recovery chamber until fully awake before being returned to their home cages.
# The vehicle (1% DMSO in PBS) and LAT8881 (AOD9604, GL449; provided by Lateral Pharma Pty Ltd) was administrated intramuscularly (i.m.) into the leg of the side contralateral to the site of injury. Dosing was carried out by a second experimenter. The rats with validated neuropathic pain state were randomly divided into 5 experimental groups: 1 ml/kg vehicle, 0.1, 0.5, 1 and 5 mg/kg LAT8881.
# Each group had 8 animals. The animals were placed in individual Perspex boxes on a raised metal mesh for at least 40 minutes before the test. Starting from the filament of lowest force (about 1 g), each filament was applied perpendicularly to the centre of the ventral surface of the paw until slightly bent for 6 seconds. If the animal withdrew or lifted the paw upon stimulation, then a hair with force immediately lower than that tested was used. If no response was observed, then a hair with force immediately higher was tested. The lowest amount of force required to induce reliable responses (positive in 3 out of 5 trials) was recorded as the value of PWT.
# The drug test was carried out on the 12th to 14th day after surgery. PWT were assessed before, 1, 2 and 4 hours following drug or vehicle administration. The animals were rested by being returned to their home cages (about 30-60 min) between two neighbouring testing time points. LAT8881 was administered by a single intramuscular injection (IM) in the ipsilateral limb at a dose of about 0.1 mg/kg body weight to about 5 mg/kg body weight.
# LAT9991 was administered by a single intramuscular injection (IM) in the ipsilateral limb at a dose of about 0.1 mg/kg body weight to about 5 mg/kg body weight.
# Gabapentin, as a positive control, obtained from Actavis, UK (Lot No. GJ29), was administered orally at 100 mg/2 ml/kg in normal saline. Dosing was carried out by a second experimenter.
# Briefly, LAT9991F was administered orally at a dose of about 1 mg/kg body weight to about 5 mg/kg body weight.
# Briefly, LAT9991 was administered orally at a dose of about 1 mg/kg body weight, 2 mg/kg body weight and 5 mg/kg body weight.
smiles,measurement,setting,value
"CC(C)[C@@H]1NC(=O)[C@H](CO)NC(=O)[C@H](CCCNC(=N)N)NC(=O)[C@@H](N)CSSC[C@@H](C(=O)NCC(=O)N[C@@H](Cc2ccccc2)C(=O)O)NC(=O)[C@H](CO)NC(=O)CNC(=O)[C@H](CCC(=O)O)NC1=O [LAT9991F, CRSVEGSCGF] (H-CRSVEGSCGF-OH; disulfide 1-8; N-terminus and C-terminus assumed)",analgesic effect compared with gabapentin at 100 mg/kg body weight orally,5 mg/kg body weight PO,comparable
same,effect on the contralateral paw responses,PO,No effect
same,time after administration within which effect on paw withdrawal threshold was observed,PO,≤ 1 h
same,time for which effect on paw withdrawal threshold was maintained,PO,at least 4 hours
same,improvement in paw withdrawal threshold compared with LAT8881,"PO, vs Example 7",comparable
same,biological activity compared to the parent peptide LAT8881 (magnitude and duration of neuropathic analgesia),nerve constriction model,equivalent or substantially equivalent
same,paw withdrawal threshold of ipsilateral paw,"oral gavage 1, 2 and 5 mg/kg body weight, vs vehicle",significant dose-dependent improvement
